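Vaccinia-infected cells with a two-color viral stage reporter; Venus fluorescence read on a plate reader; the cell line is not named here; timing not stated here. The test concentration is not given here. Percent change in Venus reporter signal; lower (more negative) values mean stronger inhibition of that viral stage.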

Values are in %. The controls that fix the scale are not given here. Common to all entries: measured here: Venus reporter, other viral stage. This is a side read-out of the assay, for part of the compounds, not drawn at random.

{"compound": "C[C@@H]1CCCCO[C@H](CN(C)C(=O)NC2CCCCC2)[C@H](C)CN([C@@H](C)CO)C(=O)c2cc(NC(=O)Cc3ccccc3)ccc2O1", "activity change (Venus) (%)": "-22.72"}
{"compound": "CC(C)(C)[S@](=O)N1Cc2cc(C(=O)NCCN3CCCCC3)nc(-c3cccc(-c4ccc(C#N)cc4)c3)c2[C@@H]1CCO", "activity change (Venus) (%)": "-13.59"}
{"compound": "C[C@@H]1CN([C@@H](C)CO)C(=O)Cc2cc(NC(=O)Nc3ccc(C(F)(F)F)cc3)ccc2O[C@@H]1CN(C)Cc1ccccc1", "activity change (Venus) (%)": "-22.93"}
{"compound": "C[C@@H]1CN([C@@H](C)CO)C(=O)c2cc(NC(=O)Nc3ccc(F)cc3)ccc2O[C@@H]1CN(C)Cc1ccc(Oc2ccccc2)cc1", "activity change (Venus) (%)": "-68.79"}
{"compound": "O=C(C[C@@H]1C[C@H]2c3cc(NC(=O)Nc4ccc(C(F)(F)F)cc4)ccc3O[C@H]2[C@H](CO)O1)NCc1cc(F)ccc1F", "activity change (Venus) (%)": "-76.41"}
{"compound": "Cc1ccc(S(=O)(=O)N(C)C[C@@H]2Oc3ncc(-c4cc5ccccc5o4)cc3C(=O)N([C@H](C)CO)C[C@@H]2C)cc1", "activity change (Venus) (%)": "-33.63"}
{"compound": "C[C@@H]1CN([C@H](C)CO)S(=O)(=O)c2ccc(-c3ccccc3)cc2O[C@H]1CN(C)Cc1cccnc1", "activity change (Venus) (%)": "-54.39"}
{"compound": "C[C@@H]1CN([C@@H](C)CO)C(=O)c2c(c3ccccc3n2C)-c2ccccc2CO[C@H]1CN(C)Cc1ccc(F)cc1", "activity change (Venus) (%)": "-65.64"}
{"compound": "C[C@@H]1CN([C@@H](C)CO)C(=O)c2cc(NC(=O)Nc3ccc(C(F)(F)F)cc3)ccc2O[C@@H]1CN(C)Cc1ccc(Oc2ccccc2)cc1", "activity change (Venus) (%)": "-46.75"}
{"compound": "C[C@H]1CN([C@@H](C)CO)C(=O)c2cccc(NC(=O)CCCCCC(=O)Nc3ccccc3N)c2O[C@H]1CN(C)Cc1ccc(-c2ccccc2)cc1", "activity change (Venus) (%)": "-50.11"}
{"compound": "COc1ccccc1NC(=O)N1CC(=O)N2[C@H](CO)[C@@H](c3ccc(C#Cc4ccc(F)cc4)cc3)[C@H]2C1", "activity change (Venus) (%)": "-48.8"}
{"compound": "CC(C)CC#Cc1ccc2c(c1)O[C@@H](CN(C)C(=O)NC1CCCC1)[C@H](C)CN([C@H](C)CO)S2(=O)=O", "activity change (Venus) (%)": "-57.95"}
{"compound": "C[C@H](NC(=O)C[C@@H]1CC[C@@H]2[C@H](COC[C@H](O)CN2Cc2ccc(C(F)(F)F)cc2)O1)c1ccccc1", "activity change (Venus) (%)": "-25.72"}
{"compound": "CO[C@@H]1CN(C)C(=O)c2cc(NC(=O)c3ccc4c(c3)OCO4)ccc2OC[C@@H](C)N(CCC(F)(F)F)C[C@H]1C", "activity change (Venus) (%)": "-31.14"}
{"compound": "COc1ccc(NC(=O)N2CCCCN3[C@H](CO)[C@@H](c4ccc(C#CCC(C)C)cc4)[C@H]3C2)cc1", "activity change (Venus) (%)": "-72.31"}
{"compound": "COc1ccc(C#Cc2ccc([C@@H]3[C@H](CO)N4CCCCN(C(=O)Nc5cccc(F)c5)C[C@@H]34)cc2)cc1", "activity change (Venus) (%)": "-78.12"}
{"compound": "C[C@@H]1CN([C@H](C)CO)C(=O)c2cccc(NS(=O)(=O)c3ccc(F)cc3)c2O[C@@H]1CN(C)Cc1ccc(-c2ccccc2)cc1", "activity change (Venus) (%)": "-27.35"}
{"compound": "O=C(Nc1ccccc1)N1CCCCN2[C@@H](CO)[C@@H](c3ccc(C#Cc4ccccc4)cc3)[C@@H]2C1", "activity change (Venus) (%)": "-68.6"}
{"compound": "O=C(C[C@@H]1CC[C@@H]2[C@H](COC[C@H](O)CN2C(=O)c2ccccc2)O1)Nc1ccc(-c2ccccc2)cc1", "activity change (Venus) (%)": "-26.16"}
{"compound": "C[C@@H]1CN([C@H](C)CO)S(=O)(=O)c2ccc(C#CC3CCCC3)cc2O[C@H]1CN(C)Cc1cccnc1", "activity change (Venus) (%)": "-72.69"}
{"compound": "C[C@@H]1CN([C@@H](C)CO)C(=O)Cc2cc(NS(=O)(=O)c3ccccc3)ccc2O[C@H]1CN(C)Cc1ccc(Oc2ccccc2)cc1", "activity change (Venus) (%)": "-68.66"}
{"compound": "C[C@H](CO)N1C[C@H](C)[C@@H](CN(C)Cc2ccc3c(c2)OCO3)Oc2ccc(NC(=O)Cc3cn(C)c4ccccc34)cc2CC1=O", "activity change (Venus) (%)": "-32.15"}
{"compound": "C[C@H]1CCCCO[C@@H](CN(C)C(=O)C2CCCCC2)[C@@H](C)CN([C@@H](C)CO)C(=O)c2cc(NC(=O)c3ccccc3)ccc2O1", "activity change (Venus) (%)": "-42.95"}
{"compound": "Cc1noc(C)c1NC(=O)Nc1cccc2c1O[C@@H](CN(C)C(=O)Nc1cccc3ccccc13)[C@H](C)CN([C@H](C)CO)C2=O", "activity change (Venus) (%)": "-38.01"}
{"compound": "C[C@@H]1CN([C@@H](C)CO)C(=O)c2cc(C#CC3CCCC3)cnc2O[C@H]1CN(C)C(=O)C1CCCCC1", "activity change (Venus) (%)": "-43.74"}
{"compound": "C[C@H](CO)N1C[C@H](C)[C@@H](CN(C)Cc2ccc(Cl)c(Cl)c2)OCCCC[C@H](C)Oc2ccc(NC(=O)c3ccncc3)cc2C1=O", "activity change (Venus) (%)": "-61.03"}
{"compound": "CC(C)CC#Cc1ccc2c(c1)O[C@@H](CN(C)CC1CCOCC1)[C@@H](C)CN([C@H](C)CO)S2(=O)=O", "activity change (Venus) (%)": "-45.88"}
{"compound": "C=CCN1C(=O)[C@]2(O[C@H](CCn3cc([C@H](O)c4ccccc4)nn3)[C@@H]([Si](C)(C)c3ccc(OC)cc3)[C@@H]2C)c2cc(N3CCC3=O)ccc21", "activity change (Venus) (%)": "-45.08"}
{"compound": "COc1ccc(S(=O)(=O)N(C)C[C@@H]2Oc3ccc(NC(=O)Nc4ccc(C(F)(F)F)cc4)cc3C(=O)N([C@@H](C)CO)C[C@@H]2C)cc1", "activity change (Venus) (%)": "-25.58"}
{"compound": "C[C@@H]1CN([C@H](C)CO)C(=O)c2cc(C#Cc3cccc(F)c3)cnc2O[C@@H]1CN(C)C(=O)C1CCCCC1", "activity change (Venus) (%)": "-48.08"}
{"compound": "COc1cccc(S(=O)(=O)Nc2ccc3c(c2)[C@@H]2C[C@H](CC(=O)N[C@@H](C)c4ccccc4)O[C@@H](CO)[C@@H]2O3)c1", "activity change (Venus) (%)": "-24.7"}
{"compound": "COc1cccc(C#Cc2ccc([C@@H]3[C@H]4CN(C(=O)Cc5cccnc5)CC(=O)N4[C@H]3CO)cc2)c1", "activity change (Venus) (%)": "-28.42"}
{"compound": "C[C@@H]1CN([C@@H](C)CO)S(=O)(=O)c2ccc(-c3cccc(F)c3)cc2O[C@H]1CN(C)C(=O)Nc1cc(F)ccc1F", "activity change (Venus) (%)": "-25.47"}
{"compound": "C[C@@H]1CCCCO[C@@H](CN(C)CC2CCCCC2)[C@H](C)CN([C@H](C)CO)C(=O)c2cc(NC(=O)Nc3cccc4ccccc34)ccc2O1", "activity change (Venus) (%)": "-33.21"}

The first 3 entries again:

{"compound": "C[C@@H]1CCCCO[C@H](CN(C)C(=O)NC2CCCCC2)[C@H](C)CN([C@@H](C)CO)C(=O)c2cc(NC(=O)Cc3ccccc3)ccc2O1", "activity change (Venus) (%)": "-22.72"}
{"compound": "CC(C)(C)[S@](=O)N1Cc2cc(C(=O)NCCN3CCCCC3)nc(-c3cccc(-c4ccc(C#N)cc4)c3)c2[C@@H]1CCO", "activity change (Venus) (%)": "-13.59"}
{"compound": "C[C@@H]1CN([C@@H](C)CO)C(=O)Cc2cc(NC(=O)Nc3ccc(C(F)(F)F)cc3)ccc2O[C@@H]1CN(C)Cc1ccccc1", "activity change (Venus) (%)": "-22.93"}

Data taken from PubChem BioAssay AID1053133, deposited by Broad Institute (2014).